Values quoted from earlier work as cited in US6555333B1, “Broad spectrum fastidious organism culture medium” (priority 2002, dated 2003).
At least one structure is not confirmed: it was looked up by name or label, or the drawing left a doubt.

Tests used:
Settings in all cases: different known culture media; cited from earlier work
S. pneumoniae = test system: S. pneumoniae
Viridans streptococci = test system: Viridans streptococci
Haemophilus influenzae = test system: Haemophilus influenzae

Measured: Reported MIC Breakpoints

CN(C)[C@@H]1C(O)=C(C(N)=O)C(=O)[C@@]2(O)C(O)=C3C(=O)c4c(O)cccc4[C@@](C)(O)[C@H]3C[C@@H]12 [Tetracycline]
(2-8) μg/mL: all assays above
